The supplement of paper PMC10849652
The list shows a part of the results.

Amino acid sequences for entries named in this document (tags omitted). A change or cut given only in a name is not applied to a line headed by its entry.
UniProt O95628: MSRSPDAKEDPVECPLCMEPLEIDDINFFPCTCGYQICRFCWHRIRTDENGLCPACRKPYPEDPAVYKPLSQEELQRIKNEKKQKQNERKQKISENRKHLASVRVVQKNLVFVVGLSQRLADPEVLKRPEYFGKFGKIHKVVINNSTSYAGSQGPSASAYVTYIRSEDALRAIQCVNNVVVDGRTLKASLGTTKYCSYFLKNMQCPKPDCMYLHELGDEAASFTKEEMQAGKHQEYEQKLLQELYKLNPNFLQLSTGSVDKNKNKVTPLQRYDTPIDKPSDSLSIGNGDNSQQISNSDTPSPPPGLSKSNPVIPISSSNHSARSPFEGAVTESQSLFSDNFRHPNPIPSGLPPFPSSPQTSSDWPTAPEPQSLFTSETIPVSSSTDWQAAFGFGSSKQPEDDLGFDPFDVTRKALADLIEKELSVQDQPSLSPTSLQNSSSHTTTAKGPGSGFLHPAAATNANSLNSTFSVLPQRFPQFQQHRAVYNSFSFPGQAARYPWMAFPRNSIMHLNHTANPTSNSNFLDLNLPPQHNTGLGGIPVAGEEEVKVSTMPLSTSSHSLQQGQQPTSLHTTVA
UniProt P54105: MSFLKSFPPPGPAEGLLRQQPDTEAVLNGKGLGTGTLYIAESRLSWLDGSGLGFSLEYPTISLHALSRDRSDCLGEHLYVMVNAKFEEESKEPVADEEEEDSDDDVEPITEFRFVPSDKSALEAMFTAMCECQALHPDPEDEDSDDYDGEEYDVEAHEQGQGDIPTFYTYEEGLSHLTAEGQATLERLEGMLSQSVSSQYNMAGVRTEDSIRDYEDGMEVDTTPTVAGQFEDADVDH
UniProt Q9C0A0: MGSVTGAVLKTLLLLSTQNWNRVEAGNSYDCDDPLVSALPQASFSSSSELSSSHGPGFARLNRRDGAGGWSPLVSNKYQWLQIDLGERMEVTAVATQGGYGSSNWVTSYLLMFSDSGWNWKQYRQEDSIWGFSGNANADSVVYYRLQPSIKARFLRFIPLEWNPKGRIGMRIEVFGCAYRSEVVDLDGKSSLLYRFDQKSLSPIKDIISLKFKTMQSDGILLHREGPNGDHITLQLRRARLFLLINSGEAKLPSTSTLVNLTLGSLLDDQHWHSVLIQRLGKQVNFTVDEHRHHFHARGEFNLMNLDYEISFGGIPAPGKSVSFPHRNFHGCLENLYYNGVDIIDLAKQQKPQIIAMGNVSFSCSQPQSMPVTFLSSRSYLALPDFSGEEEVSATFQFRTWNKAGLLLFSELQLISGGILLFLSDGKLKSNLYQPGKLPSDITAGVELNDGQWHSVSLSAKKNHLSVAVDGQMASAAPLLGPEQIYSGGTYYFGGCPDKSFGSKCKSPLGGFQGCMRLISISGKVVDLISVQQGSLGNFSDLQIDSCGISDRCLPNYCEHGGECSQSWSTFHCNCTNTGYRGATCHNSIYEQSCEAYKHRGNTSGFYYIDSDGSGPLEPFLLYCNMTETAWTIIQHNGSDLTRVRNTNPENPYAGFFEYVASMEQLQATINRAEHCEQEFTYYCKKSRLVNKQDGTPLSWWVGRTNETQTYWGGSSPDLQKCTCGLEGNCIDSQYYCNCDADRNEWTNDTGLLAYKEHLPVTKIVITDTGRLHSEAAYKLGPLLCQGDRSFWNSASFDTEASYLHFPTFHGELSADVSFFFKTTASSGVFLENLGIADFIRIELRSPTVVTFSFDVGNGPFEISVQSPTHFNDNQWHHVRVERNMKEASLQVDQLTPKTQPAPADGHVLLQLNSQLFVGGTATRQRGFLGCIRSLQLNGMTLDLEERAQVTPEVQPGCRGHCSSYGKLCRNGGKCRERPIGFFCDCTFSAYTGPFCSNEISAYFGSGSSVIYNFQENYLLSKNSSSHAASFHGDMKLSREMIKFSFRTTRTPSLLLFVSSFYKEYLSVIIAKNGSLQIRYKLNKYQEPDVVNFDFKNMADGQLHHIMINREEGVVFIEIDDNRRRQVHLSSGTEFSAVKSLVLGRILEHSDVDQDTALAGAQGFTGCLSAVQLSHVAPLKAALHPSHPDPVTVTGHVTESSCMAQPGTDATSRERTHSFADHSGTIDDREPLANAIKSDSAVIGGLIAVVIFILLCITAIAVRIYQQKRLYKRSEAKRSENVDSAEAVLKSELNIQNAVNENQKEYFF
UniProt Q8N5K1: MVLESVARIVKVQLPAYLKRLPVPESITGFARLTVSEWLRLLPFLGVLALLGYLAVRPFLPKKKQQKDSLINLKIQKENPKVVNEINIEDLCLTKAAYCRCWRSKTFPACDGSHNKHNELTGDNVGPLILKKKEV
UniProt Q6PJW8: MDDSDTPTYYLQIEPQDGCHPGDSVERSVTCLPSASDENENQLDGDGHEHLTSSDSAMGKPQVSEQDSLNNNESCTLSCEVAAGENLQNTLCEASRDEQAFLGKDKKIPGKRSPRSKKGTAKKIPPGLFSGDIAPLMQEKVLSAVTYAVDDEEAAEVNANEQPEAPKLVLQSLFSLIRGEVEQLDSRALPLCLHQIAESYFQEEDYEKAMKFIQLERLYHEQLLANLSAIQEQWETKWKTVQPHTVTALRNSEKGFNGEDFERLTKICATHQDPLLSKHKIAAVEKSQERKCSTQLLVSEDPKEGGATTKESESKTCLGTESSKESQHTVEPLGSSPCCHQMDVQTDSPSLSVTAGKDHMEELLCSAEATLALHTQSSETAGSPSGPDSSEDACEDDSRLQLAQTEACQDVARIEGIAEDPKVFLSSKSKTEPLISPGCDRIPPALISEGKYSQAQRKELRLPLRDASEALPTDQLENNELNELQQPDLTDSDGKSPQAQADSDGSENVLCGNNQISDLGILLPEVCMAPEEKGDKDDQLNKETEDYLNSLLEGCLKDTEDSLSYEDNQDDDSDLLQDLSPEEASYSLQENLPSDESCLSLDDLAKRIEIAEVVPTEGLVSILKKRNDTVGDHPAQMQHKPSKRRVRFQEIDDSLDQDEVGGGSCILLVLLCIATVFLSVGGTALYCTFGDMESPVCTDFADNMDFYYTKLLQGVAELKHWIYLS
UniProt Q7Z460: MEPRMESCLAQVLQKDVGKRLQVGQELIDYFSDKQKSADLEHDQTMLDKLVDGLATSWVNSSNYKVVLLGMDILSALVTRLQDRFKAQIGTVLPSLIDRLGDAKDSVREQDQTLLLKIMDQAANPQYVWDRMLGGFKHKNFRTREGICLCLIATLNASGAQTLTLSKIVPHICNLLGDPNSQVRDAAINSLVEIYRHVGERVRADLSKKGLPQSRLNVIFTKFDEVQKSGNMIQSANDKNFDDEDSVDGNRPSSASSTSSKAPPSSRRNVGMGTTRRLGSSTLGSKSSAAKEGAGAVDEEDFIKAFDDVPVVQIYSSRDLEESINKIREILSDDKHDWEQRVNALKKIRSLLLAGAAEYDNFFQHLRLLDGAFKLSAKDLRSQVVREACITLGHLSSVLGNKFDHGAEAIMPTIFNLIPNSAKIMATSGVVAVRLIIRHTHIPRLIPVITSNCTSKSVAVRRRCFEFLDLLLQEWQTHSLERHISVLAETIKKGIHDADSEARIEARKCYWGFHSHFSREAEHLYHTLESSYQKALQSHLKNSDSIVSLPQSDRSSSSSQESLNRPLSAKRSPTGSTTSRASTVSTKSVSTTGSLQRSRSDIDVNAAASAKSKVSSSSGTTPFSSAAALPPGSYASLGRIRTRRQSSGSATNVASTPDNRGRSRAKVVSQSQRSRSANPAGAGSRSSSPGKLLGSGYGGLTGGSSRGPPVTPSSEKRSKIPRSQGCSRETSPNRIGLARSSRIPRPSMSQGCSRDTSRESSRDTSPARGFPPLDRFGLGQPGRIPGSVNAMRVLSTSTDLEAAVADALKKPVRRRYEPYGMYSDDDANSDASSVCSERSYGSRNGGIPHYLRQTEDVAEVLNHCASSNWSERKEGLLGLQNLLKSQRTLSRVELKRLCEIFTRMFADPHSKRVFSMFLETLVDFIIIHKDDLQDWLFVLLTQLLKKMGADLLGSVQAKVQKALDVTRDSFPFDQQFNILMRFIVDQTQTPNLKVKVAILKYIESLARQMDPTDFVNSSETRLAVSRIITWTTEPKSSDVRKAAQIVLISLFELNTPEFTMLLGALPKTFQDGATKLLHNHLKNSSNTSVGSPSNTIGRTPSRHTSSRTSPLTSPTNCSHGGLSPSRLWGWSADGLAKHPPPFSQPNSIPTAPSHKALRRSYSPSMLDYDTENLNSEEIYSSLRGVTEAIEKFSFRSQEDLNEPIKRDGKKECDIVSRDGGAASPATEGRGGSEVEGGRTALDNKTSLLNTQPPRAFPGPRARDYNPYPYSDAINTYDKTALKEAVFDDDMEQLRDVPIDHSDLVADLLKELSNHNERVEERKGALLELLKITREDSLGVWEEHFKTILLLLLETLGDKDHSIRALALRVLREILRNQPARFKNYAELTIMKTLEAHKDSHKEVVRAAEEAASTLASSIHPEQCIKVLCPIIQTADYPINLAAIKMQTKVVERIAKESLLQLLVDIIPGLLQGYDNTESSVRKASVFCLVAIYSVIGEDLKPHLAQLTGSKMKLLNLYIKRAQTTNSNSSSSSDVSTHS
UniProt Q6P4Q7: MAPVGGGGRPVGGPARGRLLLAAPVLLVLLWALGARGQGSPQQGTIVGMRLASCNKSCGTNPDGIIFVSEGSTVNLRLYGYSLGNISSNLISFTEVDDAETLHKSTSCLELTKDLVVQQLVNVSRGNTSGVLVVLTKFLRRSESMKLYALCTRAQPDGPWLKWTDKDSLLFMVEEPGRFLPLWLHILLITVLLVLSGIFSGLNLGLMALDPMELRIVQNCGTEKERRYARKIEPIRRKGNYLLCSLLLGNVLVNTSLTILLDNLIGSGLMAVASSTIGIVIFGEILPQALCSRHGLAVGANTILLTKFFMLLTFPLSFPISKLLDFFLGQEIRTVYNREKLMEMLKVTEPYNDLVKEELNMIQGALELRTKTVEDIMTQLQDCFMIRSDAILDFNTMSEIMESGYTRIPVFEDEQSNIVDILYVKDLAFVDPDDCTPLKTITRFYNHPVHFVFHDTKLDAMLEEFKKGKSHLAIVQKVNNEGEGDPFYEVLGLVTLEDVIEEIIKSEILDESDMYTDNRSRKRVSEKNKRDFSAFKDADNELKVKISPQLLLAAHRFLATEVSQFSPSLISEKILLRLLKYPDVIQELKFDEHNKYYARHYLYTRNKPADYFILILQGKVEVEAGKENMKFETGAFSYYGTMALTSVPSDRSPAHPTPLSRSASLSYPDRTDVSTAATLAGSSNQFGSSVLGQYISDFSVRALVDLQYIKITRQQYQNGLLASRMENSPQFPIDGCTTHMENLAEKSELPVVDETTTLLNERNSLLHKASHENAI
UniProt P51797: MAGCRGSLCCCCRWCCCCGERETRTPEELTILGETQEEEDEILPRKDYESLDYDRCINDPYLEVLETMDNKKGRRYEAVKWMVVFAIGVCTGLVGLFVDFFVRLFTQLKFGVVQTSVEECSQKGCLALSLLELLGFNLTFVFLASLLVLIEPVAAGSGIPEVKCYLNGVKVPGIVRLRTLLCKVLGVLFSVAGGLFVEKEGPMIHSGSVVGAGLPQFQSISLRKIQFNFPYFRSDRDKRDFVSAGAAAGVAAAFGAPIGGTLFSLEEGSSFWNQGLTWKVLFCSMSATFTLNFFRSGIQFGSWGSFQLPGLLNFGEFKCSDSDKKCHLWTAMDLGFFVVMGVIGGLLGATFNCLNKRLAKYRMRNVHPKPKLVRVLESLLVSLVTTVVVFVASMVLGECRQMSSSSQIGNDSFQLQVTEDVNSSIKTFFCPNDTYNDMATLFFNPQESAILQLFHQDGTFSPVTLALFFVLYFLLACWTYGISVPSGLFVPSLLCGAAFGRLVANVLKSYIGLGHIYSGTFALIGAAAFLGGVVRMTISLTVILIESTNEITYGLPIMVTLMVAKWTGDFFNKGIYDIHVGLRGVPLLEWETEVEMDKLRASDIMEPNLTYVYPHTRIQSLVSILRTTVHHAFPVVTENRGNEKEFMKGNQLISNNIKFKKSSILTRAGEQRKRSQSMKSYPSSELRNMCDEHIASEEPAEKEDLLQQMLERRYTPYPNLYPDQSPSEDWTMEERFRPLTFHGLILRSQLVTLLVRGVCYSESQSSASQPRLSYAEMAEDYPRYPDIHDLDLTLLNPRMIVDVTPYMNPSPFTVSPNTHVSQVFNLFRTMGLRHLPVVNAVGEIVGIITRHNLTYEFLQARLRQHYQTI
UniProt P62633: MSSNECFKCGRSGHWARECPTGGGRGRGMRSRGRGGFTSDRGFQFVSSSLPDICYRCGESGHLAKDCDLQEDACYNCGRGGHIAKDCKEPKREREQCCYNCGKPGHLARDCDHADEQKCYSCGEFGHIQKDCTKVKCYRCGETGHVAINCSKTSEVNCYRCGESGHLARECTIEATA
UniProt Q99828: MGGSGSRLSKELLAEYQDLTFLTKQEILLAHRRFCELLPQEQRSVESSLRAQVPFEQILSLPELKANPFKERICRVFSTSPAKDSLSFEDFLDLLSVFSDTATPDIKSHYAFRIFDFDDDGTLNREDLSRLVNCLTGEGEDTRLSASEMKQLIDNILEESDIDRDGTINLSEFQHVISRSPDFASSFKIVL

Tests used:
Assay in all cases: log2 fold change, soluble protein after heating vs DMSO (PISA); higher = thermal stabilisation; K562 cells, 10 uM, 30 min; active = over 0.2 and 3.5 SD of the protein, either way, in both replicates (recomputed)
[1] = compound: NC(=O)Nc1cc(-c2cccc(F)c2)sc1C(=O)N[C@H]1CCCNC1
Method in brief: (§1)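 Aliquots of K562 cells (2×10^6 cells/mL) treated with 10 μM compound for 30 min were heated for 3 min over 48°C-58°C. After pooling and extraction in PBS with 0.5% NP-40 at 4°C, soluble protein from a 21,000xg, 90 min spin was quantified by TMTpro 16plex LC-MS/MS with channel sums equalised. Thermal stability is expressed against control samples, from duplicates, as a log2 fold change.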

[2] = compound: NC(=O)c1cnc(N[C@@H]2CCCC[C@@H]2N)nc1Nc1cccc(-n2nccn2)c1
Method in brief: as §1

[3] = compound: NC1(c2ccc(-c3nc4ccn5c(=O)[nH]nc5c4cc3-c3ccccc3)cc2)CCC1
Method in brief: as §1

[4] = compound: NCC(=O)Nc1ccc(-n2nc(C(F)(F)F)cc2-c2ccc3c(ccc4ccccc43)c2)cc1
Method in brief: as §1

entinostat = compound: Nc1ccccc1NC(=O)c1ccc(CNC(=O)OCc2cccnc2)cc1 [entinostat]
Method in brief: as §1

vorinostat = compound: O=C(CCCCCCC(=O)Nc1ccccc1)NO [vorinostat]
Method in brief: as §1

citarinostat = compound: O=C(CCCCCCNC(=O)c1cnc(N(c2ccccc2)c2ccccc2Cl)nc1)NO [citarinostat]
Method in brief: as §1

silmitasertib = compound: O=C(O)c1ccc2c(c1)nc(Nc1cccc(Cl)c1)c1ccncc12 [silmitasertib]
Method in brief: as §1

[5] = compound: O=C1NC(=O)C(c2cnc3ccccn23)=C1c1cn2c3c(cc(F)cc13)CN(C(=O)N1CCCCC1)CC2
Method in brief: as §1

[6] = compound: c1cc(OCCN2CCCCC2)cc(-c2n[nH]c3ccc(-c4nnc[nH]4)cc23)c1
Method in brief: as §1

entospletinib = compound: c1cn2cc(-c3ccc4cn[nH]c4c3)nc(Nc3ccc(N4CCOCC4)cc3)c2n1 [entospletinib]
Method in brief: as §1

Measured: log2 fold change

CNOT4 isoform 6 (UniProt O95628)
inactive: [1] 0.033 | [2] -0.046 | [3] -0.074 | [4] -0.026 | entinostat -0.009 | vorinostat 0.052 | citarinostat 0.038 | silmitasertib 0.023 | [5] -0.043 | [6] -0.037

CLSPN (UniProt Q9HAW4)
inactive: [1] -0.015 | [2] -0.009 | [3] -0.003 | [4] -0.013 | entinostat -0.048 | vorinostat -0.028 | citarinostat 0.026 | silmitasertib 0.053 | [5] -0.062 | [6] -0.086

CKB (UniProt P12277)
inactive: [1] -0.035 | [2] -0.02 | [3] -0.117 | [4] -0.033 | entinostat -0.001 | vorinostat -0.023 | citarinostat -0.046 | silmitasertib -0.117 | [5] -0.04 | [6] -0.018

CISD3 (UniProt P0C7P0)
inactive: [1] -0.07 | [2] 0.046 | [3] -0.146 | [4] -0.102 | entinostat 0.046 | vorinostat -0.082 | citarinostat 0.028 | silmitasertib 0.009 | [5] 0.027 | [6] -0.036 | entospletinib 0.014

CLN8 (UniProt Q9UBY8)
inactive: [1] -0.062 | [2] -0.002 | [3] 0.334 | [4] 0 | entinostat 0.058 | vorinostat -0.061 | citarinostat 0.064 | silmitasertib 0.075 | [6] -0.095

CNOT6L (UniProt Q96LI5)
inactive: [1] -0.003 | [2] 0.028 | [3] 0.051 | [4] -0.133 | entinostat -0.061 | vorinostat -0.04 | citarinostat 0.141 | silmitasertib -0.012 | [5] 0.098 | [6] 0.008 | entospletinib 0.06

CLNS1A (UniProt P54105)
inactive: [1] 0.017 | [2] -0.018 | [3] 0.024 | [4] 0.005 | entinostat 0.02 | vorinostat 0.014 | citarinostat 0.019 | silmitasertib -0.022 | [5] -0.042 | [6] 0.019 | entospletinib 0.046

CNTNAP4 (UniProt Q9C0A0)
inactive: [1] 0.119 | [2] 0.074 | [3] 0.337 | [4] 0.07 | entinostat -0.117 | vorinostat -0.04 | citarinostat -0.173 | silmitasertib 0.172 | [5] -0.099 | [6] -0.313 | entospletinib 0.068

CLTC (UniProt Q00610)
inactive: [1] 0.03 | [2] 0.091 | [3] -0.059 | [4] 0.147 | entinostat -0.016 | vorinostat -0.015 | citarinostat -0.105 | silmitasertib 0.153 | [5] -0.046 | [6] 0.078 | entospletinib 0.004

CHRAC1 (UniProt Q9NRG0)
inactive: [1] 0.02 | [2] -0.055 | [3] -0.071 | [4] -0.058 | entinostat 0.06 | vorinostat 0.08 | citarinostat 0.109 | silmitasertib 0.015 | [5] 0.017 | [6] 0.042 | entospletinib -0.038

Quoted at random: 2 records from the list, in no set order.
CNTNAP4 (UniProt Q9C0A0)
inactive: [1] 0.119 | [2] 0.074 | [3] 0.337 | [4] 0.07 | entinostat -0.117 | vorinostat -0.04 | citarinostat -0.173 | silmitasertib 0.172 | [5] -0.099 | [6] -0.313 | entospletinib 0.068

CHRAC1 (UniProt Q9NRG0)
inactive: [1] 0.02 | [2] -0.055 | [3] -0.071 | [4] -0.058 | entinostat 0.06 | vorinostat 0.08 | citarinostat 0.109 | silmitasertib 0.015 | [5] 0.017 | [6] 0.042 | entospletinib -0.038

The list goes on.

CLCN2 (UniProt P51788)
inactive: [1] 0.039 | [2] 0.032 | [3] -0.254 | [4] -0.019 | entinostat 0.117 | vorinostat 0.015 | silmitasertib 0.046 | [5] 0.041

CNOT6 (UniProt Q9ULM6)
inactive: [1] 0.057 | [2] -0.087 | [3] 0.001 | [4] 0.1 | entinostat 0.064 | vorinostat 0.06 | citarinostat -0.054 | silmitasertib 0.054 | [6] 0.042 | entospletinib -0.073

CISD2 (UniProt Q8N5K1)
inactive: [1] 0.027 | [2] 0.006 | [3] 0.022 | [4] 0.007 | entinostat 0.006 | vorinostat -0.05 | citarinostat 0.015 | silmitasertib -0.003 | [5] 0.002 | [6] -0.034 | entospletinib 0

CIAO2A (UniProt Q9H5X1)
inactive: [1] -0.034 | [2] -0.073 | [3] -0.03 | [4] 0.004 | entinostat -0.008 | vorinostat -0.006 | citarinostat -0.04 | silmitasertib -0.041 | [5] -0.018 | [6] 0.009 | entospletinib -0.011

CNPY3 (UniProt Q9BT09)
inactive: [1] -0.03 | [2] -0.039 | [3] 0.017 | [4] -0.05 | entinostat -0.015 | vorinostat -0.042 | citarinostat 0 | silmitasertib 0.005 | [5] -0.053 | [6] -0.025 | entospletinib 0.021

CNP (UniProt P09543)
inactive: [1] -0.134 | [2] 0.034 | [3] -0.011 | [4] -0.056 | entinostat -0.037 | vorinostat -0.051 | citarinostat 0.02 | silmitasertib 0.02 | [5] -0.076 | [6] 0.027 | entospletinib -0.045

CHURC1-FNTB (UniProt B4DL54)
inactive: [1] -0.044 | [2] -0.002 | [3] -0.03 | [4] 0.159 | entinostat -0.016 | vorinostat -0.101 | citarinostat 0.073 | silmitasertib 0.109 | [5] -0.098 | [6] -0.07 | entospletinib 0.027

CHORDC1 (UniProt Q9UHD1)
inactive: [1] -0.005 | [2] -0.067 | [3] -0.067 | [4] -0.04 | entinostat -0.002 | vorinostat -0.001 | citarinostat 0.037 | silmitasertib -0.013 | [5] -0.028 | [6] 0.018 | entospletinib 0.028

CLPTM1L (UniProt G5E9Z2)
inactive: [1] 0.139 | [2] 0.237 | [3] -0.175 | [4] -0.028 | entinostat -0.012 | vorinostat 0.022 | silmitasertib -0.05 | [5] 0.445

CNST (UniProt Q6PJW8)
inactive: [1] 0.025 | [2] -0.027 | [3] -0.111 | [4] -0.031 | entinostat -0.023 | vorinostat 0.044 | citarinostat 0.065 | silmitasertib 0.011 | [5] -0.015 | [6] 0.039 | entospletinib -0.033

CLASP1 (UniProt Q7Z460)
inactive: [1] -0.035 | [2] -0.043 | [3] -0.113 | [4] -0.106 | entinostat 0.032 | vorinostat 0.133 | citarinostat 0.07 | silmitasertib 0.014 | [5] -0.078 | [6] -0.118 | entospletinib 0.071

CHPF2 (UniProt Q9P2E5)
inactive: [1] -0.041 | [2] 0.02 | [3] -0.116 | [4] 0.073 | entinostat 0.043 | vorinostat -0.004 | silmitasertib 0.099 | [5] 0.182

CIRBP isoform 2 (UniProt Q14011)
inactive: [1] 0.019 | [2] 0.006 | [3] 0.219 | [4] 0.022 | entinostat -0.019 | vorinostat -0.053 | citarinostat -0.089 | silmitasertib 0.087 | [5] 0.14 | [6] -0.12 | entospletinib 0.097

CNNM4 (UniProt Q6P4Q7)
inactive: [1] -0.013 | [2] 0.091 | [3] -0.111 | [4] 0.08 | entinostat 0.029 | vorinostat 0.053 | citarinostat -0.068 | silmitasertib 0.084 | [5] -0.046 | [6] 0.197 | entospletinib 0.054

CNOT10 isoform 6 (UniProt Q9H9A5)
inactive: [1] 0.004 | [2] -0.067 | [3] -0.027 | [4] -0.009 | entinostat 0.016 | vorinostat 0.05 | citarinostat 0 | silmitasertib 0.057 | [5] 0.032 | [6] -0.029 | entospletinib -0.006

CLCN6 isoform 5 (UniProt P51797)
inactive: [1] -0.056 | [2] 0.059 | [3] -0.23 | [4] 0.043 | entinostat -0.133 | vorinostat 0.033 | citarinostat 0.057 | silmitasertib 0.018 | [5] -0.155 | [6] -0.067 | entospletinib -0.002

CNPY4 (UniProt Q8N129)
inactive: [1] -0.07 | [2] -0.128 | [3] 0.088 | [4] 0.023 | entinostat 0.015 | vorinostat -0.03 | silmitasertib 0.026

CNBP isoform 6 (UniProt P62633)
inactive: [1] 0 | [2] 0.001 | [3] 0.162 | [4] 0.062 | entinostat -0.023 | vorinostat -0.047 | citarinostat -0.017 | silmitasertib 0.064 | [5] 0.097 | [6] -0.036 | entospletinib 0.018

CIB1 isoform 2 (UniProt Q99828)
inactive: [1] -0.118 | [2] 0.008 | [3] -0.016 | [4] -0.095 | entinostat 0.041 | vorinostat 0.001 | citarinostat 0.048 | silmitasertib 0.072 | [5] -0.025 | [6] -0.073 | entospletinib 0.026
